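Luminescence from an EWS-FLI1 target-promoter (NR0B1) reporter, set against a CMV-promoter reporter, two days after silencing single genes in TC32 Ewing sarcoma cells. Each siRNA was applied at 20 nM. A z-score of the log NR0B1-over-CMV signal, less the median of siRNAs with the same seed; more negative means a stronger specific loss of the NR0B1 reporter.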

The strongest results of the screen are mostly left out here. Sequences are the guide (antisense) strand, without overhang.

{"strand": "UUCUCUGUUCACCAUAUCC", "target gene": "FAM122B", "seed-corrected z-score": "-0.6521"}
{"strand": "UGAAGUUCACGGCUUCUUC", "target gene": "ILKAP", "seed-corrected z-score": "0.4326"}
{"strand": "UAUUUGUCUUAUCAGAUCC", "target gene": "MIS18BP1", "seed-corrected z-score": "-0.376"}
{"strand": "AUUACUUCCAUUGCUGACC", "target gene": "ONECUT1", "seed-corrected z-score": "-0.503"}
{"strand": "UGCGUAACAAGGUCAGCUC", "target gene": "LDOC1L", "seed-corrected z-score": "0.3888"}
{"strand": "UUUACUGUGAUCAACUUUG", "target gene": "RHEB", "seed-corrected z-score": "0.2424"}
{"strand": "UUUCCUAUGAGGAUACAGC", "target gene": "HES5", "seed-corrected z-score": "-0.2103"}
{"strand": "UUAACUUGAAGGUUCUCUG", "target gene": "ZNF239", "seed-corrected z-score": "-0.3145"}
{"strand": "UAUCUUGCAAAGCACCUGC", "target gene": "SDC1", "seed-corrected z-score": "0.1797"}
{"strand": "UGAAUCUGAAGUAUAUUUC", "target gene": "SP2", "seed-corrected z-score": "-0.9842"}
{"strand": "UUAACUUUAACUAUGGUUG", "target gene": "TCP1", "seed-corrected z-score": "0.1381"}
{"strand": "UUAGAUUUUCGUACUCUAC", "target gene": "ZNF433", "seed-corrected z-score": "0.2005"}
{"strand": "UUUGUGAAGAACGCACAGC", "target gene": "RAB17", "seed-corrected z-score": "0.2315"}
{"strand": "UAAGAAGUCUGGAGAAGCC", "target gene": "LOC643659", "seed-corrected z-score": "-0.4356"}
{"strand": "UCAGUAUUCACAUCGGAGG", "target gene": "SCMH1", "seed-corrected z-score": "1.252"}
{"strand": "AAUGAUGUAGUCUCUCUCC", "target gene": "LOC344065", "seed-corrected z-score": "0.6621"}
{"strand": "UUUGUGAUCGAAGAAUUCU", "target gene": "KCNMB3", "seed-corrected z-score": "0.08046"}
{"strand": "AAACGAAUCUUGCUUAUCG", "target gene": "SMIM19", "seed-corrected z-score": "0.5021"}
{"strand": "UCUAGAUCCUGAGGCAUUC", "target gene": "FOXO4", "seed-corrected z-score": "0.07923"}
{"strand": "UUCCGGGUCACUUCCACGU", "target gene": "MTX1", "seed-corrected z-score": "-0.2591"}
{"strand": "UGAAGGAUCAGCACUGCUU", "target gene": "LAMB3", "seed-corrected z-score": "-0.04085"}
{"strand": "UUUGGGAUUACGAUCUUGU", "target gene": "TPGS2", "seed-corrected z-score": "0.262"}
{"strand": "AUAGUUUUAUCAAAGUCCU", "target gene": "OR10A3", "seed-corrected z-score": "2.389"}
{"strand": "UGUUGUAACCGGAGAAGAG", "target gene": "CHRNA4", "seed-corrected z-score": "0.3616"}
{"strand": "UGAUGUCGUAGCUCUGUCU", "target gene": "CARM1", "seed-corrected z-score": "-0.8621"}
{"strand": "UUCUGAUCAAUCUUGCGCU", "target gene": "RPL6", "seed-corrected z-score": "-1.244"}
{"strand": "UCACCAAAUAUUGACAUGA", "target gene": "UGT2B7", "seed-corrected z-score": "0.721"}
{"strand": "UCAAAGUCCACUCUCUCUC", "target gene": "TNNT2", "seed-corrected z-score": "0.3923"}
{"strand": "UUCGAUGCCGGUGAACAGC", "target gene": "TSKS", "seed-corrected z-score": "-0.0235"}
{"strand": "UUCAGUCCAAUGAUGCUGG", "target gene": "FAM227A", "seed-corrected z-score": "0.0002581"}
{"strand": "UAGGUAAACAUGAACUGUC", "target gene": "BRINP2", "seed-corrected z-score": "0.4201"}
{"strand": "UCUGGAUAAAGUCUGAGCC", "target gene": "CASP16P", "seed-corrected z-score": "1.849"}
{"strand": "UAAUUGACAAACUCAUUGG", "target gene": "SLITRK5", "seed-corrected z-score": "0.08227"}
{"strand": "UACGCGGUCUUUGCUGUCC", "target gene": "BAHCC1", "seed-corrected z-score": "-0.5874"}
{"strand": "UCAGUUUCAAUGGUGUCAG", "target gene": "DBN1", "seed-corrected z-score": "-0.748"}
{"strand": "UAAAGGUUGGUGUAGAAGA", "target gene": "P2RY2", "seed-corrected z-score": "-0.6855"}
{"strand": "UGAGUGUAAAAGGUGUAUC", "target gene": "NWD1", "seed-corrected z-score": "1.084"}
{"strand": "AUGUUGAUAAUAACUGGUC", "target gene": "C12orf29", "seed-corrected z-score": "2.01"}
{"strand": "UAGUGGAUCAGGUUACUCA", "target gene": "NCEH1", "seed-corrected z-score": "0.1231"}
{"strand": "UGCGGAAAUAUUAACUGCC", "target gene": "CD109", "seed-corrected z-score": "0.1787"}
{"strand": "AACCACAUGCUUGACAUCC", "target gene": "CIAO1", "seed-corrected z-score": "0.2604"}
{"strand": "UCCAUUUGCAUUCAACCAG", "target gene": "DLEU1", "seed-corrected z-score": "-0.06186"}
{"strand": "UUGGAAUUCAUUCUGCGCC", "target gene": "TCEB3", "seed-corrected z-score": "-0.423"}
{"strand": "UUAAUUUUAUCAACCAGGU", "target gene": "OTULIN", "seed-corrected z-score": "0.2742"}
{"strand": "UGAUAUUCCAUGCAGAUUC", "target gene": "SHQ1", "seed-corrected z-score": "0.429"}
{"strand": "UAUGUUCUCAGUUGUUUCC", "target gene": "POLDIP2", "seed-corrected z-score": "-0.6943"}
{"strand": "UCAACUUCAAUGUCGGAUG", "target gene": "B2M", "seed-corrected z-score": "-0.08359"}
{"strand": "UUAUUGUUGGUUUCCUUUG", "target gene": "BIRC5", "seed-corrected z-score": "-0.2561"}
{"strand": "UACAUUACCAUCUAUCGCC", "target gene": "ZEB1", "seed-corrected z-score": "-0.109"}

Some entries from above, unchanged:

| strand | target gene | seed-corrected z-score |
|---|---|---|
| `AACCACAUGCUUGACAUCC` | CIAO1 | 0.2604 |
| `UGCGGAAAUAUUAACUGCC` | CD109 | 0.1787 |
| `UCUAGAUCCUGAGGCAUUC` | FOXO4 | 0.07923 |
| `UCAACUUCAAUGUCGGAUG` | B2M | -0.08359 |
| `AAUGAUGUAGUCUCUCUCC` | LOC344065 | 0.6621 |

The results are deposited in PubChem (AID1159506; NCATS, 2015).